Results are given in words; binding and its absence hold for the method and conditions named. In cells and extracts the contact can be indirect. Some binding calls cover weakened binding; strength is not graded here.
Target: enhancer of zeste homolog 2 (human (endogenous in SKOV-3)) (UniProt Q15910)
Test: co-IP; endogenous proteins in SKOV-3 whole cell lysate (150 mM NaCl, 50 mM Tris-HCl, 1 mM EDTA pH 7.5, 1% NP-40); precipitated with anti-FBP1 antibody, anti-EZH2 antibody or isotype IgG and Protein A+G agarose beads at 4°C; Western blot

By UniProt entry, the sequences of proteins in these tests, tags left out.
UniProt Q15910: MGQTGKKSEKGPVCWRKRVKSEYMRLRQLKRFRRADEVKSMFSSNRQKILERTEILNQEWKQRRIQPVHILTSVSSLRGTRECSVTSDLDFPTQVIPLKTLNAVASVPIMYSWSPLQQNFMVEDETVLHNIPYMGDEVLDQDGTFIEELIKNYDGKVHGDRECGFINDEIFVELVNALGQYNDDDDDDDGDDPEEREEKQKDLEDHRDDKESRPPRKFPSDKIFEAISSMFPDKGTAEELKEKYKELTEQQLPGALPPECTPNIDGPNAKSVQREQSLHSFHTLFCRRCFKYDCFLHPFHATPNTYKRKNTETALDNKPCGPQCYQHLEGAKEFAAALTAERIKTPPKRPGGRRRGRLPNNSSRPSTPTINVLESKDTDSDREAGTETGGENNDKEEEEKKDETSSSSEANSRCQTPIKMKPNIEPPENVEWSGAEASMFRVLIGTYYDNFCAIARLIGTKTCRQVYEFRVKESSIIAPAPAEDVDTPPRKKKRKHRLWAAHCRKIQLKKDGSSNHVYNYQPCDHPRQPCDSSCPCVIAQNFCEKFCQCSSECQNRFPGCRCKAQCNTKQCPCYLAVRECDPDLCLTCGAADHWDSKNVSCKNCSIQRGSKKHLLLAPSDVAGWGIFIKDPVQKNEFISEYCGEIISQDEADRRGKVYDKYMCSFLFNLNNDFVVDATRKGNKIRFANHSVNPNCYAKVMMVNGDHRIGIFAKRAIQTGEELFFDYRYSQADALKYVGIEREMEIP
UniProt Q96AE4: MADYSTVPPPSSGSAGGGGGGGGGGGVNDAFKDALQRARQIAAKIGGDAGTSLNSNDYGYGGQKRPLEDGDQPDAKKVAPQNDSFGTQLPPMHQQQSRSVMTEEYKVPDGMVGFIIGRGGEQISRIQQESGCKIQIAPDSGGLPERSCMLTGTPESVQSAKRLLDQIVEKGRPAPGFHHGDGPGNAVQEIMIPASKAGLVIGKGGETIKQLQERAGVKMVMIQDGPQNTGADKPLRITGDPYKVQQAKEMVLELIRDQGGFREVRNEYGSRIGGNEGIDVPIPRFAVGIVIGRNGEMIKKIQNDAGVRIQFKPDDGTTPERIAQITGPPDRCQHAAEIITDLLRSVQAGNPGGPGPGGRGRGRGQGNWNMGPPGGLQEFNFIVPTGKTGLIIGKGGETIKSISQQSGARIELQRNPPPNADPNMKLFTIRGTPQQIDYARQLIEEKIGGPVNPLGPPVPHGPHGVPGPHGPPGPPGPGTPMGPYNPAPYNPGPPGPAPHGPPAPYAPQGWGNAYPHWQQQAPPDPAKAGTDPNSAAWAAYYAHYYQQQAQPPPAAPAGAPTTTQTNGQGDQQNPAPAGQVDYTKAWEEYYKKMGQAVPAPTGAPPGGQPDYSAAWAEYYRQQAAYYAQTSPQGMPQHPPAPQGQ

far upstream element binding protein 1 (from UniProt Q96AE4 1-644)
binding: binds

Source: paper PMC9469104
